Test [1] has as its target HA‐tagged DEC2 (basic helix‐loop‐helix family member e41) (UniProt Q99PV5). Kind of test: co-IP; HEK293T cells co-transfected with Dec2‐HA and Myod1‐3xFLAG, lysed in RIPA 48 h later; lysate incubated with anti‐FLAG or anti‐HA antibody 12 h at 4 °C, Protein G Dynabeads, three RIPA washes, western blot with the reciprocal antibody; also with 20 µM CBD for 12 h before extraction (interaction not altered).

The chains behind the UniProt entries cited, without tags or fusion partners.
UniProt Q99PV5: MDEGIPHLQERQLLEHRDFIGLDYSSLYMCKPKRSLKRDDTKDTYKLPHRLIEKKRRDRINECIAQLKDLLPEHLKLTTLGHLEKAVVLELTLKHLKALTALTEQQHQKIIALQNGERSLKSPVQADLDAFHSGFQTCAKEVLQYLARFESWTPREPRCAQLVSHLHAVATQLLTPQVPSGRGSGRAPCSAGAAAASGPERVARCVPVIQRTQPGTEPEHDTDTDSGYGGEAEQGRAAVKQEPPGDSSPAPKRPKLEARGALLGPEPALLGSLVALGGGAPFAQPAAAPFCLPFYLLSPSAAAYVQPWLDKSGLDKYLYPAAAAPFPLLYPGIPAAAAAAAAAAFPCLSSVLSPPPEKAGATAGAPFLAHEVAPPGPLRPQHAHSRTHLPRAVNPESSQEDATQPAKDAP
UniProt P10085: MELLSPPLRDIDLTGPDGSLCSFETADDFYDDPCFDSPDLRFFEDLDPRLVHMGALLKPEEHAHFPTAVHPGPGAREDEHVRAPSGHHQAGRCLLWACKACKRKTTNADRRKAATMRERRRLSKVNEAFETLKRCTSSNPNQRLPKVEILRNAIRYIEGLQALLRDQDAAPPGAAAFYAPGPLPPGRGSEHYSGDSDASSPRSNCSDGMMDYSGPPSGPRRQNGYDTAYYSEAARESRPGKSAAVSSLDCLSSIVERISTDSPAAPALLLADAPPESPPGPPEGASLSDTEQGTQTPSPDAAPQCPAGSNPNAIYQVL

Test [2] addresses FLAG‐tagged MYOD1 (myoblast determination protein 1) (UniProt P10085). The description is as above.

Results are given in words; binding and its absence hold for the method and conditions named. Binding seen in cells or lysates may run through a third protein. Some binding calls cover weakened binding; strength is not graded here.

As for “FLAG‐tagged MYOD1 (myoblast determination protein 1) (from UniProt P10085 1-318)”, the binding entry in test [1] is recorded as “binds”.

For the substance “HA‐tagged DEC2 (basic helix‐loop‐helix family member e41) (from UniProt Q99PV5 1-410)”, in test [2], the binding entry is reported as “binds”.

The values above are taken from article PMC12462991.
